# Cleaved PARP in drug-treated melanoma cells

Values as published with doi:10.1371/journal.pone.0140310, rounded.

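The test systems are human melanoma cell lines, treated with two drugs together for 72 h and then stained and imaged. Values are the share of nuclei positive for cleaved PARP as a percentage of the same share in the DMSO control: 100 is the control level, higher means more apoptosis. Concentrations were fixed for each drug; these are the higher of two levels. The file gives one value for each pair and line, without errors, so small differences may be noise. Basal and induced levels differ widely between cell lines.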 Only some of the drugs and lines screened are listed, without regard to their results. A dash means that no value is listed here.

Drug key:
MK-2206, 2000 nM: NC1(c2ccc(-c3nc4ccn5c(=O)[nH]nc5c4cc3-c3ccccc3)cc2)CCC1
nutlin-3, 500 nM: COc1ccc(C2=N[C@@H](c3ccc(Cl)cc3)[C@@H](c3ccc(Cl)cc3)N2C(=O)N2CCNC(=O)C2)c(OC(C)C)c1
SNS-032, 50 nM: CC(C)(C)c1cnc(CSc2cnc(NC(=O)C3CCNCC3)s2)o1
Src-I1, 10000 nM: COc1cc2ncnc(Nc3ccc(Oc4ccccc4)cc3)c2cc1OC
enzastaurin, 4000 nM: Cn1cc(C2=C(c3cn(C4CCN(Cc5ccccn5)CC4)c4ccccc34)C(=O)NC2=O)c2ccccc21
pioglitazone, 10000 nM: CCc1ccc(CCOc2ccc(CC3SC(=O)NC3=O)cc2)nc1 (centres unmarked)
GW2580, 5000 nM: COc1ccc(COc2ccc(Cc3cnc(N)nc3N)cc2OC)cc1
IMD-0354, 80 nM: O=C(Nc1cc(C(F)(F)F)cc(C(F)(F)F)c1)c1cc(Cl)ccc1O
vorinostat, 400 nM: O=C(CCCCCCC(=O)Nc1ccccc1)NO

Drugs	SK-MEL-28	RPMI-7951	WM3619	A375	A2058	G-361	UACC-62	LOX IMVI	COLO 800	UACC-257	SK-MEL-2	WM1716
Src-I1 + IMD-0354	38.4	168	106	73.7	81.7	109	243	179	103	67.4	79.4	176
pioglitazone + SNS-032	699	653	139	46.0	98.2	53.5	132	97.6	49.1	34.6	144	75.9
IMD-0354 + vorinostat	56.6	97.2	125	-	74.0	79.6	109	170	52.0	220	37.1	246
enzastaurin + GW2580	293	204	80.0	72.5	279	326	105	177	86.5	103	421	183
Src-I1 + vorinostat	172	498	144	40.5	70.8	186	387	39.1	69.9	144	167	50.6
Src-I1 + nutlin-3	267	182	146	34.5	103	406	332	129	105	71.0	39.1	62.9
IMD-0354 + enzastaurin	243	171	81.2	262	124	44.7	213	63.2	125	50.0	644	136
SNS-032 + GW2580	363	131	124	7.8	118	54.2	191	163	134	62.0	171	115
pioglitazone + vorinostat	92.6	76.4	152	108	134	105	148	167	39.0	127	86.7	27.2
SNS-032 + MK-2206	206	182	147	-	71.5	133	171	50.0	54.1	32.4	146	167
nutlin-3 + GW2580	139	60.4	151	122	74.8	85.1	122	179	120	43.4	64.9	64.3
MK-2206 + Src-I1	89.0	739	141	38.0	225	601	190	128	116	46.8	95.8	532
MK-2206 + pioglitazone	92.2	70.0	104	54.1	39.3	160	373	105	148	32.3	180	131
nutlin-3 + vorinostat	131	97.3	134	-	38.8	160	185	153	82.8	43.6	158	40.0
pioglitazone + Src-I1	139	83.7	138	31.6	86.9	120	32.2	133	114	115	119	125
Src-I1 + GW2580	94.5	100	126	67.2	61.1	507	175	199	128	83.9	89.2	82.8
IMD-0354 + SNS-032	70.4	222	117	-	75.5	170	133	109	220	68.0	76.6	45.4
SNS-032 + nutlin-3	188	274	139	-	130	197	185	80.2	92.8	44.1	171	270
enzastaurin + pioglitazone	550	56.4	93.2	146	123	145	272	141	140	93.9	669	243
IMD-0354 + GW2580	30.3	26.3	84.4	64.4	69.9	219	88.2	93.0	25.9	36.1	77.1	44.8
pioglitazone + nutlin-3	70.5	136	86.8	71.4	85.2	70.4	240	184	148	66.1	126	61.4
enzastaurin + MK-2206	76.3	161	82.7	90.1	300	155	258	370	144	65.8	306	227
IMD-0354 + pioglitazone	43.2	64.7	85.1	116	38.8	50.6	26.4	91.3	80.7	58.3	98.1	122
MK-2206 + vorinostat	144	95.2	167	-	52.1	97.2	147	93.9	236	120	197	50.4
IMD-0354 + nutlin-3	45.2	65.7	144	62.4	61.1	111	184	154	164	100	98.0	20.0
enzastaurin + Src-I1	385	625	86.8	376	143	110	237	39.2	67.4	30.3	161	82.8
enzastaurin + SNS-032	377	363	123	-	265	161	284	190	130	40.7	-	402
vorinostat + SNS-032	307	117	128	-	81.0	185	146	57.5	251	205	415	60.3
vorinostat + GW2580	60.3	79.0	115	38.0	122	73.6	64.3	48.3	143	68.6	20.4	86.5
enzastaurin + nutlin-3	230	212	144	364	95.3	144	255	30.7	135	91.7	71.5	110